Laboratory results taken from patent US20260007697A1 (FUNDACI N PARA LA INVESTIGACI N M DICA APLICADA, published 2026).
No constants are given. Whether binding was seen depends on the method and setting.

Biological target: OVA
Assay: ELISA, plate coated with OVA as control, detection with scFv F8

B1: anti-EDA F8 scFv (purified recombinant antibody fragment) (scFv)
scFv: EVQLLESGGGLVQPGGSLRLSCAASGFTFSVMKMSWVRQAPGKGLEWVSAISGSGGSTYYADSVKGRFTISRDNSKNTLYLQMNSLRAEDTAVYYCAKSTHLYLFDYWGQGTLVTVSSGGGGSGGGGSGGGGSGGGGSEIVLTQSPGTLSLSPGERATLSCRASQSVSNAFLAWYQQKPGQAPRLLIYGASSRATGIPDRFSGSGSGTDFTLTISRLEPEDFAVYYCQQMRGRPPTFGQGTKVEIKHHHHHH
notes: Expressed in E. coli BL21(DE3) from pET20b and purified on protein A Sepharose; also called scFv F8; scFv (F8)
  binding: no binding (tested: coating concentration not printed)
